PubChem BioAssay AID1259254 – NCATS, 2017
Here is one part, drawn at random, of about 59,000 deposited reagents. In the full data, about 1,550 (2.6%) got an active call. 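G2 share is only a proxy for re-replication; each gene was hit by three separate siRNAs, and active genes were retested.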 The raw values are shown without normalisation. Entries without a mark were called inactive. The numbers tell different reagents against one gene apart. No sequences are given here. The record does not give: the amount of reagent.

Assay: 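Genome-wide screen for genes that prevent DNA re-replication in cancer cells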 (primary screen)
Cells: human HCT116 colorectal cancer cells
Reagent: single siRNA against human genes
Timing: 3 days
Read-out: 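Nuclei stained with Hoechst and imaged; cell-cycle phase assigned by DNA content; G2 share scaled per plate, non-targeting siRNA 0%, GMNN siRNA 100%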
Direction: G2 robust z-score and G2 cells, % of GMNN control: higher = more G2 cells, more excess DNA replication; raw share of cells in G2: higher = larger share of cells with G2 DNA content
Rule for the call: 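An siRNA counts as active if its G2 robust z-score lies at least 5 MADs above the screen median; here such calls match roughly 38% of GMNN control or more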

The first 8 records as a preview:
no.	target	siRNA no.	G2 robust z-score	G2 cells, % of GMNN control	raw share of cells in G2 (%)
1	METTL24 (methyltransferase like 24)	1	0.455	6.17	5.94
2	METTL24 (methyltransferase like 24)	2	-0.417	0.0355	3.56
3	METTL24 (methyltransferase like 24)	3	0.537	6.74	5.25
4	C3orf85 (chromosome 3 open reading frame 85)	1	-0.303	0.838	4.12
5	C3orf85 (chromosome 3 open reading frame 85)	2	-0.405	0.115	3.56
6	C3orf85 (chromosome 3 open reading frame 85)	3	-0.164	1.81	5.54
7	KLHL7 (kelch like family member 7)	1	0.258	4.78	6.33
8	KLHL7 (kelch like family member 7)	2	2.13	17.9	14.3

The list itself, from the first entry:
no.	target	siRNA no.	G2 robust z-score	G2 cells, % of GMNN control	raw share of cells in G2 (%)
1	METTL24 (methyltransferase like 24)	1	0.455	6.17	5.94
2	METTL24 (methyltransferase like 24)	2	-0.417	0.0355	3.56
3	METTL24 (methyltransferase like 24)	3	0.537	6.74	5.25
4	C3orf85 (chromosome 3 open reading frame 85)	1	-0.303	0.838	4.12
5	C3orf85 (chromosome 3 open reading frame 85)	2	-0.405	0.115	3.56
6	C3orf85 (chromosome 3 open reading frame 85)	3	-0.164	1.81	5.54
7	KLHL7 (kelch like family member 7)	1	0.258	4.78	6.33
8	KLHL7 (kelch like family member 7)	2	2.13	17.9	14.3
9	KLHL7 (kelch like family member 7)	3	-1.34	-6.45	2.13
10	KIFC1 (kinesin family member C1)	1	0.285	4.97	7.58
11	KIFC1 (kinesin family member C1)	2	-1.12	-4.92	2.4
12	KIFC1 (kinesin family member C1)	3	-1.18	-5.37	3.09
13	GLO1 (glyoxalase I)	1	-0.341	0.567	5.44
14	GLO1 (glyoxalase I)	2	-0.485	-0.447	5.09
15	GLO1 (glyoxalase I)	3	0.854	8.98	6.86
16	ECM2 (extracellular matrix protein 2)	1	-0.412	0.0689	3.49
17	ECM2 (extracellular matrix protein 2)	2	1.53	13.7	11.3
18	ECM2 (extracellular matrix protein 2)	3	0.488	6.4	5.43
19	CTU1 (cytosolic thiouridylase subunit 1)	1	3.21	25.6	11
20	CTU1 (cytosolic thiouridylase subunit 1)	2	0.35	5.43	4.65
21	CTU1 (cytosolic thiouridylase subunit 1)	3	-0.358	0.447	4.27
22	POGLUT3 (protein O-glucosyltransferase 3)	1	0.125	3.85	5.12
23	POGLUT3 (protein O-glucosyltransferase 3)	2	-0.363	0.412	3.04
24	POGLUT3 (protein O-glucosyltransferase 3)	3	-0.319	0.725	3.32
25	SLC16A9	1	-0.346	0.531	4.9
26	SLC16A9	2	-0.218	1.44	5.3
27	SLC16A9	3	0.0248	3.14	7.46
28	TRIB1 (tribbles pseudokinase 1)	1	0.512	6.57	7.63
29	TRIB1 (tribbles pseudokinase 1)	2	-0.0655	2.51	6.1
30	TRIB1 (tribbles pseudokinase 1)	3	0.665	7.64	6.13
31	GET1 (guided entry of tail-anchored proteins factor 1)	1	0.705	7.93	8.65
32	GET1 (guided entry of tail-anchored proteins factor 1)	2	-0.299	0.865	4.24
33	GET1 (guided entry of tail-anchored proteins factor 1)	3	-0.923	-3.52	2.1
34	PARVA (parvin alpha)	1	-0.241	1.27	6.99
35	PARVA (parvin alpha)	2	0.858	9	7.67
36	PARVA (parvin alpha)	3	0.765	8.35	7.82
37	RPL27A (ribosomal protein L27a)	1	3.65	28.7	17.2
38	RPL27A (ribosomal protein L27a)	2	4.54	34.9	18
39	RPL27A (ribosomal protein L27a)	3	1.17	11.2	7.41
40	RPS19BP1 (ribosomal protein S19 binding protein 1)	1	1.95	16.7	8.21
41	RPS19BP1 (ribosomal protein S19 binding protein 1)	2	-0.935	-3.61	2.55
42	RPS19BP1 (ribosomal protein S19 binding protein 1)	3	1.34	12.4	6.88
43	SEMA3D (semaphorin 3D)	1	-0.883	-3.25	4.41
44	SEMA3D (semaphorin 3D)	2	-0.247	1.23	5.15
45	SEMA3D (semaphorin 3D)	3	-0.512	-0.638	4.43
46	HS3ST5 (heparan sulfate-glucosamine 3-sulfotransferase 5)	1	3.03	24.3	13.6
47	HS3ST5 (heparan sulfate-glucosamine 3-sulfotransferase 5)	2	0.0754	3.5	6.17
48	HS3ST5 (heparan sulfate-glucosamine 3-sulfotransferase 5)	3	-0.907	-3.41	4.33
49	NEDD1 (NEDD1 gamma-tubulin ring complex targeting factor)	1	0.0621	3.4	5.46
50	NEDD1 (NEDD1 gamma-tubulin ring complex targeting factor)	2	1.28	12	6.9
51	NEDD1 (NEDD1 gamma-tubulin ring complex targeting factor)	3	0.766	8.36	4.26
52	SNX6 (sorting nexin 6)	1	3.38	26.8	12.2
53	SNX6 (sorting nexin 6)	2	0.655	7.58	9.33
54	SNX6 (sorting nexin 6)	3	-0.61	-1.33	3.22
55	NUTM2G (NUT family member 2G)	1	-0.159	1.85	4.34
56	NUTM2G (NUT family member 2G)	2	-0.865	-3.12	2.23
57	NUTM2G (NUT family member 2G)	3	2.97	23.9	11.2
58	LOC644925 (retired record)	1	0.701	7.9	6.11
59	LOC644925 (retired record)	2	-0.565	-1.01	2.85
60	LOC644925 (retired record)	3	0.0929	3.62	5.02
61	TRIM75 (tripartite motif containing 75)	1	0.194	4.33	5.39
62	TRIM75 (tripartite motif containing 75)	2	1.21	11.5	8.06
63	TRIM75 (tripartite motif containing 75)	3	0.302	5.09	6.9
64	FAM229B (family with sequence similarity 229 member B)	1	-0.054	2.59	4
65	FAM229B (family with sequence similarity 229 member B)	2	-0.33	0.643	3.87
66	FAM229B (family with sequence similarity 229 member B)	3	2.75	22.3	11.9
67	PTX4 (pentraxin 4)	1	1.72	15	9.95
68	PTX4 (pentraxin 4)	2	1.82	15.8	11.4
69	PTX4 (pentraxin 4)	3	-1.24	-5.73	1.81
70	GNG12 (G protein subunit gamma 12)	1	-0.474	-0.364	4.18
71	GNG12 (G protein subunit gamma 12)	2	-0.365	0.399	6.6
72	GNG12 (G protein subunit gamma 12)	3	-0.287	0.947	4.78
73	ARMCX1 (armadillo repeat containing X-linked 1)	1	1.58	14.1	8.63
74	ARMCX1 (armadillo repeat containing X-linked 1)	2	1.07	10.5	8.7
75	ARMCX1 (armadillo repeat containing X-linked 1)	3	1.24	11.7	7.07
76	FBXL18 (F-box and leucine rich repeat protein 18)	1	0.0706	3.46	5.88
77	FBXL18 (F-box and leucine rich repeat protein 18)	2	2.05	17.4	11.9
78	FBXL18 (F-box and leucine rich repeat protein 18)	3	0.349	5.42	3.86
79	NDUFB2 (NADH:ubiquinone oxidoreductase subunit B2)	1	-0.257	1.16	3.58
80	NDUFB2 (NADH:ubiquinone oxidoreductase subunit B2)	2	0.687	7.8	8.38
81	NDUFB2 (NADH:ubiquinone oxidoreductase subunit B2)	3	0.777	8.44	8.81
82	GRK7 (G protein-coupled receptor kinase 7)	1	0.331	5.29	7.24
83	GRK7 (G protein-coupled receptor kinase 7)	2	-0.359	0.442	5.35
84	GRK7 (G protein-coupled receptor kinase 7)	3	1.47	13.3	7.94
85	TNFRSF11A (TNF receptor superfamily member 11a)	1	-0.237	1.3	5.13
86	TNFRSF11A (TNF receptor superfamily member 11a)	2	2.48	20.4	12.4
87	TNFRSF11A (TNF receptor superfamily member 11a)	3	2.89	23.3	13.1
